PMC6479050
These are yes or no findings as the source states them, for the method shown. For some of these results: Binding seen in cells or lysates may run through a third protein. Some binding calls cover weakened binding; strength is not graded here.

The chains behind the UniProt entries cited, without tags or fusion partners.
UniProt Q9H8M2: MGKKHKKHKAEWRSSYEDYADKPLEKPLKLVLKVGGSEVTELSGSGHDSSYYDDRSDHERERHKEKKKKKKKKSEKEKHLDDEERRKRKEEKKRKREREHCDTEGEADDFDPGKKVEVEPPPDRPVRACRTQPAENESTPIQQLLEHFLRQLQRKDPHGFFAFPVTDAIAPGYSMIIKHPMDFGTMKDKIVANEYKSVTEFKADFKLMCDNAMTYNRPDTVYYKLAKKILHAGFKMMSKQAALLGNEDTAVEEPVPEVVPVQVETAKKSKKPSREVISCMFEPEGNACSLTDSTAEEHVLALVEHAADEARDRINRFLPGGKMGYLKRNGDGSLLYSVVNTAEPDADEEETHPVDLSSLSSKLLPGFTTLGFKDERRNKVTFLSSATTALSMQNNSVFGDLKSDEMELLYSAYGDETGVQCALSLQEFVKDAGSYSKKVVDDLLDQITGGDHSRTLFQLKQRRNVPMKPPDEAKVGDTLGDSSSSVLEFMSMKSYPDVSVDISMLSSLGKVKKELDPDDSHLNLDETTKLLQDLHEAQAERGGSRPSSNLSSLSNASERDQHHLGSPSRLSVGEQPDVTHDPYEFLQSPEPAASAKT
UniProt Q92922: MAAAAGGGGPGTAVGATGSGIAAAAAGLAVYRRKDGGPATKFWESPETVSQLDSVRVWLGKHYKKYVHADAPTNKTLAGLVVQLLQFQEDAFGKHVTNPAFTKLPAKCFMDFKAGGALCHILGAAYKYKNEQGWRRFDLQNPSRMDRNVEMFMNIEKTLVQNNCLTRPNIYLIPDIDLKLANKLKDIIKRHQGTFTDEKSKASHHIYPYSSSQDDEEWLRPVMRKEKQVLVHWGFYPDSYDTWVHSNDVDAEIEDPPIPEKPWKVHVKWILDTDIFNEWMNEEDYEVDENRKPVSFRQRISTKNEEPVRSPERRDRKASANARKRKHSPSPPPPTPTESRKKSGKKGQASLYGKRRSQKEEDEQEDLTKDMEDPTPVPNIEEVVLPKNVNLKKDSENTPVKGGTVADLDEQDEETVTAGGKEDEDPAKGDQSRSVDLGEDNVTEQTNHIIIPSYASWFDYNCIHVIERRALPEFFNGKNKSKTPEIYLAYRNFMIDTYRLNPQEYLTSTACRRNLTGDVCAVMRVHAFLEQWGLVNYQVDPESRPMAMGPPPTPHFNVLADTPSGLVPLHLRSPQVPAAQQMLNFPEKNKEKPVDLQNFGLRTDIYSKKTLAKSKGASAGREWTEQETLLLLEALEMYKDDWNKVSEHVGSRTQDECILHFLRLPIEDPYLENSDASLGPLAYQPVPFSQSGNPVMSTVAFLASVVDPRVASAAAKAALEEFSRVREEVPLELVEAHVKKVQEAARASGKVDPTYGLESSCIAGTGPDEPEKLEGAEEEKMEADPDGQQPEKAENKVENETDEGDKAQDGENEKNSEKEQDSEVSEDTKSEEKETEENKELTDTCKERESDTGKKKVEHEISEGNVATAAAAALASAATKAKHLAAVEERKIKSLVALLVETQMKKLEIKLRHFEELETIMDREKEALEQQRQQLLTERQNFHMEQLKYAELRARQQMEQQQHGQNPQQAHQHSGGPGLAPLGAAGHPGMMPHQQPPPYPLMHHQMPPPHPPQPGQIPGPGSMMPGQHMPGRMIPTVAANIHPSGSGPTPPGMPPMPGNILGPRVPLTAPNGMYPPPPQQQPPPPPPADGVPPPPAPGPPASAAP
UniProt P51532: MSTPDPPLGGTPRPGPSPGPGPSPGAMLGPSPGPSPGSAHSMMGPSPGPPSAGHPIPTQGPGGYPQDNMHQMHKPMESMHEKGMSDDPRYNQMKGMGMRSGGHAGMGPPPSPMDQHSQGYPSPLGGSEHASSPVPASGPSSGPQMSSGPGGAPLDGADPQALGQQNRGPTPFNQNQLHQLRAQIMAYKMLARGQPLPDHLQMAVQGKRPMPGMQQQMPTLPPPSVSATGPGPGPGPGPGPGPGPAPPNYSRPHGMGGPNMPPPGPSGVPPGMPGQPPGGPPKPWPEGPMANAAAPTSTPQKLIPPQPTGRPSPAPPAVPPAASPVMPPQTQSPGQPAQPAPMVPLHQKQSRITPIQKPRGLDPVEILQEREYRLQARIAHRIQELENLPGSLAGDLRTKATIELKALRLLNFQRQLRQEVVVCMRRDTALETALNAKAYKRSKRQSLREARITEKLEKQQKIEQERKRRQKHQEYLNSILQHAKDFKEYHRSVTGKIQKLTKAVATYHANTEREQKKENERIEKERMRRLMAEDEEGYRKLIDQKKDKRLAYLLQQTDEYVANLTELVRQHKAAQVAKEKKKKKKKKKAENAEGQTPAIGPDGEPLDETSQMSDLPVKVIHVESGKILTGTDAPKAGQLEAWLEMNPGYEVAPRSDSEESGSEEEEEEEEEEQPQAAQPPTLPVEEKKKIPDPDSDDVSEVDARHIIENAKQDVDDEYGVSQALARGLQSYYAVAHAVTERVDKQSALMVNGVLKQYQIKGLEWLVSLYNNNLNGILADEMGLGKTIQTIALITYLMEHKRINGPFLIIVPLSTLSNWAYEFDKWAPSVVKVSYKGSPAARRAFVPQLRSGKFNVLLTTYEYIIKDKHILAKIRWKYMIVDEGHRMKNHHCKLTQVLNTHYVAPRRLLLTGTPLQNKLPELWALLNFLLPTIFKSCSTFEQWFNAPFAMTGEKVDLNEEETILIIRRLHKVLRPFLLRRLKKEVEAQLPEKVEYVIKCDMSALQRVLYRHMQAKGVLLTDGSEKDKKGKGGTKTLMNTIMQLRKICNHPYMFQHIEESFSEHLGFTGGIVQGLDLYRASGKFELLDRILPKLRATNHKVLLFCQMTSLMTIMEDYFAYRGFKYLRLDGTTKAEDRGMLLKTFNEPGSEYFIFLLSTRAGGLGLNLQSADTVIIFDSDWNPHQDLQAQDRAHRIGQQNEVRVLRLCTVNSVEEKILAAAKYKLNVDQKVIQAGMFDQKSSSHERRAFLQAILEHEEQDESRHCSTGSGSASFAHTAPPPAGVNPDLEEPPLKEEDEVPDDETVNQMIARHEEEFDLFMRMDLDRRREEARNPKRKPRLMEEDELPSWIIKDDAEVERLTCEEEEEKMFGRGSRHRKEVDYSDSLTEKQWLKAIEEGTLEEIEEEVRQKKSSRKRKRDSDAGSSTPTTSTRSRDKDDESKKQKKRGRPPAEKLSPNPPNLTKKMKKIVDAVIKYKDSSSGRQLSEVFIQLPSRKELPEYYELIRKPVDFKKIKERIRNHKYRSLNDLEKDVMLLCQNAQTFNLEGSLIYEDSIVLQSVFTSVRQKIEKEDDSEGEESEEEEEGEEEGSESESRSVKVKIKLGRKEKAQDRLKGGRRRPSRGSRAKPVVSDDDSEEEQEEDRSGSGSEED
UniProt Q96GM5: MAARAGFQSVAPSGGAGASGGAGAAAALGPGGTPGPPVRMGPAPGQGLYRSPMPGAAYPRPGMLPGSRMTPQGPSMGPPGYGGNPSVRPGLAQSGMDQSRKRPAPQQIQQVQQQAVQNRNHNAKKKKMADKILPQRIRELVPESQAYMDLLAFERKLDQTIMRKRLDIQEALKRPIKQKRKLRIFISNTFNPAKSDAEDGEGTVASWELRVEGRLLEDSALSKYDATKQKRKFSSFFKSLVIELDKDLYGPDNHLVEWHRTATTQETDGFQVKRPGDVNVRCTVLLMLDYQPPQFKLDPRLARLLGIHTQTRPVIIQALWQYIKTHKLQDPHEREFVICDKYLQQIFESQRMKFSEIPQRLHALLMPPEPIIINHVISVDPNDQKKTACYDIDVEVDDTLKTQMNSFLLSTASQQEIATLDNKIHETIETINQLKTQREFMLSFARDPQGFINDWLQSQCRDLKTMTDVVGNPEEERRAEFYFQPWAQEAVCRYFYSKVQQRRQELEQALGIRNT
UniProt Q12824: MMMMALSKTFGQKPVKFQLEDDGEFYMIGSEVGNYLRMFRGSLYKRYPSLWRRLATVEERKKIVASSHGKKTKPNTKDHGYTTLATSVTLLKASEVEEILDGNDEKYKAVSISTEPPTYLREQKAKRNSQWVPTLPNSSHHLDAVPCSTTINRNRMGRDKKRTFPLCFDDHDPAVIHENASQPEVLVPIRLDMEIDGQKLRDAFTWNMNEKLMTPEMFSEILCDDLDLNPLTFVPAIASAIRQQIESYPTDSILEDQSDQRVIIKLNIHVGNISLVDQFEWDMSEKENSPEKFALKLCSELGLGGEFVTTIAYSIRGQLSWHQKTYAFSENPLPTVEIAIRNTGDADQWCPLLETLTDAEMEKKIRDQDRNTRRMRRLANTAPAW
UniProt O96019: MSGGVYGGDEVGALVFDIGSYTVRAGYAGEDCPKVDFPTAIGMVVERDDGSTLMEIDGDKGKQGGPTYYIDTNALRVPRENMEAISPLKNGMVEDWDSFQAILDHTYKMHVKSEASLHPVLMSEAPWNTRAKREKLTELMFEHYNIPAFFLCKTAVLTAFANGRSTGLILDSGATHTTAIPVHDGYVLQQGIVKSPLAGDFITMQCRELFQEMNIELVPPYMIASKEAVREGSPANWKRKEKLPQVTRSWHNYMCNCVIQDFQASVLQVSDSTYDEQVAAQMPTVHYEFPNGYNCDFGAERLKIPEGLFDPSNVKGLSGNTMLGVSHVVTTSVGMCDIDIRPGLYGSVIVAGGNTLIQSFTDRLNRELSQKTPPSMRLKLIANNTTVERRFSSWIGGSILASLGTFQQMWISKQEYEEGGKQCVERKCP
UniProt Q9NZM4: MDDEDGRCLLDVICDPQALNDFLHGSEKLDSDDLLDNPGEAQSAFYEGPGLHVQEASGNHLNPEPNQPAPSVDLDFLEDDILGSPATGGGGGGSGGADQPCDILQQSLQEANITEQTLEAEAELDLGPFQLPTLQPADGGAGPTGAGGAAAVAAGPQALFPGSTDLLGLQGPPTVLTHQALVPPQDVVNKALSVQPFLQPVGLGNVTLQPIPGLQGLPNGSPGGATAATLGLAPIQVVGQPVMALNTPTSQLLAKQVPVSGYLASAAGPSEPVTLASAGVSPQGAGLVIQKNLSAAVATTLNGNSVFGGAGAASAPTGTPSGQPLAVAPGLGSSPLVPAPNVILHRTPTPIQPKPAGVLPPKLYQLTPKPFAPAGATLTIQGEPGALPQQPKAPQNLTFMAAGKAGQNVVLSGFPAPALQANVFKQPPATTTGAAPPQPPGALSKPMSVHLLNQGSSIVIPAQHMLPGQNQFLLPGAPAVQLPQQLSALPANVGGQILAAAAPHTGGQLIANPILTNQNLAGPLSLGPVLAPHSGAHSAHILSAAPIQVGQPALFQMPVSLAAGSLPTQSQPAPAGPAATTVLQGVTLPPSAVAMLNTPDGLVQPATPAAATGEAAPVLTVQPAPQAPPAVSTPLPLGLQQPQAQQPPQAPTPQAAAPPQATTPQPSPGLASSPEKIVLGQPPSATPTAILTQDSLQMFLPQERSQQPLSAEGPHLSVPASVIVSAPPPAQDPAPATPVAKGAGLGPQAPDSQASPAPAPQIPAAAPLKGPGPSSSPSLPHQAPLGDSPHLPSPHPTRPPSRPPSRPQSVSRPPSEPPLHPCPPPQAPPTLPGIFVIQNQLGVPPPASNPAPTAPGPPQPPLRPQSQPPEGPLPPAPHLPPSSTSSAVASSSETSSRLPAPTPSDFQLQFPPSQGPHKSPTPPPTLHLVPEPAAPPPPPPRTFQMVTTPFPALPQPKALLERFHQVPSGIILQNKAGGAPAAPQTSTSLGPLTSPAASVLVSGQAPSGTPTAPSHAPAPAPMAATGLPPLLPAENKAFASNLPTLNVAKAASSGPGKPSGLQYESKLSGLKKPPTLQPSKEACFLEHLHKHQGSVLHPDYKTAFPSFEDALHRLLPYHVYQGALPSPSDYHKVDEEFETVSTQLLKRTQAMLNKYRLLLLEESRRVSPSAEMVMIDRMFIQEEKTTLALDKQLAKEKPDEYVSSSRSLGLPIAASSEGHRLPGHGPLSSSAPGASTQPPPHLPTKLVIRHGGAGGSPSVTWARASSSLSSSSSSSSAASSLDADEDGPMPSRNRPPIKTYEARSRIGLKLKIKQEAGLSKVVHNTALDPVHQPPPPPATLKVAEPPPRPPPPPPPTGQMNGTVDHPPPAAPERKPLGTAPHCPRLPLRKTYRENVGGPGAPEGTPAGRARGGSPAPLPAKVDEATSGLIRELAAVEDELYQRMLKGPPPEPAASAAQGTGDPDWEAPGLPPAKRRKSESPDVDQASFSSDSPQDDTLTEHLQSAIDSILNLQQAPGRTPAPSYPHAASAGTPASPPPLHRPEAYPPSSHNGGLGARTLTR

Key:
[1] = target: Bromodomain-containing protein 9 (BRD9) (human (endogenous in G401)) (UniProt Q9H8M2); experiment: co-sedimentation; glycerol sedimentation: 1 mg nuclear extract on a 10-35% glycerol gradient, 40,000 r.p.m., 16 h, 4 °C, fractions western blotted; G401 without or with SMARCB1 re-expression, HEK293T parental or SMARCB1 KO, G401 with control or BRD9 CRISPR-Cas9
[2] = target: Bromodomain-containing protein 9 (BRD9) (human (endogenous in G401)) (UniProt Q9H8M2); experiment: immuno-depletion; immuno-depletion of BRD9 in G401 cells without and with SMARCB1 re-expression
[3] = target: SMARCC1 (BAF155) (human (endogenous in G401)) (UniProt Q92922); experiment: co-IP; IP of endogenous BRD9, SMARCC1 or SMARCA4 from nuclear extract (150 mM salt, overnight at 4 °C, Protein G Dynabeads, RIPA washes) and western blot; G401 (without or with BRD9 knockdown, without or with SMARCB1 addback) and H1299 (BRD9 knockdown, SMARCB1 knockdown or both)
[4] = target: SMARCA4 (BRG1) (human (endogenous in G401)) (UniProt P51532); experiment: as above

Substance	binding [1]	binding [2]	binding [3]	binding [4]
SMARCC1 (BAF155) (from UniProt Q92922 1-1105)	binds	–	–	–
SMARCD1 (BAF60A) (from UniProt Q96GM5 1-515)	–	binds	binds	–
SMARCB1, endogenous in H1299 (from UniProt Q12824 1-385)	–	–	binds	–
SMARCA4 (BRG1) (from UniProt P51532 1-1647)	binds	binds	–	–
Bromodomain-containing protein 9 (BRD9) (from UniProt Q9H8M2 1-597)	–	–	binds	binds

More lines, now with the values ahead:

binding [1]	binding [2]	binding [3]	binding [4]	Substance
–	–	binds	–	ACTL6A (BAF53A) (from UniProt O96019 1-429)
binds	–	–	–	GLTSCR1 (also known as BICRA, BRD4 Interacting Chromatin-Remodeling Complex Associated Protein) (from UniProt Q9NZM4 1-1560)
